# No constants are given. Whether binding was seen depends on the method and setting. In cells and extracts the contact can be indirect. For some assays here: Binding calls can cover weak binding; strength is not graded here.
# B1: MKRN1 (endogenous) (protein, UniProt Q9UHC7 1-482)
# chain: MAEAATPGTTATTSGAGAAAATAAAASPTPIPTVTAPSLGAGGGGGGSDGSGGGWTKQVTCRYFMHGVCKEGDNCRYSHDLSDSPYSVVCKYFQRGYCIYGDRCRYEHSKPLKQEEATATELTTKSSLAASSSLSSIVGPLVEMNTGEAESRNSNFATVGAGSEDWVNAIEFVPGQPYCGRTAPSCTEAPLQGSVTKEESEKEQTAVETKKQLCPYAAVGECRYGENCVYLHGDSCDMCGLQVLHPMDAAQRSQHIKSCIEAHEKDMELSFAVQRSKDMVCGICMEVVYEKANPSERRFGILSNCNHTYCLKCIRKWRSAKQFESKIIKSCPECRITSNFVIPSEYWVEEKEEKQKLILKYKEAMSNKACRYFDEGRGSCPFGGNCFYKHAYPDGRREEPQRQKVGTSSRYRAQRRNHFWELIEERENSNPFDNDEEEVVTFELGEMLLMLLAAGGDDELTDSEDEWDLFHDELEDFYDLDL
# B2: SIVA1 (endogenous) (protein, UniProt O15304 1-175)
# chain: MPKRSCPFADVAPLQLKVRVSQRELSRGVCAERYSQEVFEKTKRLLFLGAQAYLDHVWDEGCAVVHLPESPKPGPTGAPRAARGQMLIGPDGRLIRSLGQASEADPSGVASIACSSCVRAVDGKAVCGQCERALCGQCVRTCWGCGSVACTLCGLVDCSDMYEKVLCTSCAMFET
# Legend:
# Experiment in all cases: co-IP; AGS cells transfected with plasmids for wild type CagA, ΔEPIYA-CagA mutants or PR CagA; lysates immunoprecipitated with CagA antibody, blots for ULF, SIVA1 and MKRN1
# [1] = target: wild type CagA expressed from plasmid (WT-CagA) (Helicobacter pylori (strain not stated))
# [2] = target: CagA phosphorylation-deficient mutant (PR CagA) (Helicobacter pylori (strain not stated))
# [3] = target: ΔEPIYA-CagA deletion mutant Δ2 (lacks two EPIYA motifs) (Helicobacter pylori (strain not stated))
# [4] = target: ΔEPIYA-CagA deletion mutant Δ3 (lacks three EPIYA motifs) (Helicobacter pylori (strain not stated))
Binder,binding [1],binding [2],binding [3],binding [4]
B1,no binding,,,
B2,binds,no binding,binds,no binding

# Source: PMC9242521
